In publication PMC13469816 one finds binding data, which are given here for one substance.

By UniProt entry, the sequences of proteins in these tests, tags left out.
UniProt P28033: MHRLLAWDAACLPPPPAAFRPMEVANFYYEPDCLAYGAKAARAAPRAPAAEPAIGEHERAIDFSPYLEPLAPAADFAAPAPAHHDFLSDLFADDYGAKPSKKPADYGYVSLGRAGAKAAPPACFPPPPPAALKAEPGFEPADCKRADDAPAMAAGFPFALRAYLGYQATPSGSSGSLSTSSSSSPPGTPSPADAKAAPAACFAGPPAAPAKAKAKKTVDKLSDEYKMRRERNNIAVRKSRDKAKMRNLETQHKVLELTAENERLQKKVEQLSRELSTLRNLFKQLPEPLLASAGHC

The target of this assay is C/EBPβ (mouse, in 3T3^RAS-β^UTR cells) (mouse) (UniProt P28033). Briefly: native gel or EMSA; nuclear extracts of 3T3^RAS-β^UTR cells (control or Upf1-depleted) with a 32P-labelled double-stranded consensus C/EBP site probe, native PAGE; homodimer species on DNA. For orientation: In EMSA bound probe runs differently from free probe, usually more slowly.

Results are given in words; binding and its absence hold for the method and conditions named. Some binding calls cover weakened binding; strength is not graded here.

“C/EBPβ (mouse, in 3T3^RAS-β^UTR cells) (from UniProt P28033 1-296)”: the binding result was “binds”.
